The results in this text go back to PMC11904943.

Protein sequences, listed by entry. Tags and fused reporters are not part of them. Lines headed by an entry give the natural chain unless they say otherwise; changes in a name come on top.
UniProt Q9BTA9: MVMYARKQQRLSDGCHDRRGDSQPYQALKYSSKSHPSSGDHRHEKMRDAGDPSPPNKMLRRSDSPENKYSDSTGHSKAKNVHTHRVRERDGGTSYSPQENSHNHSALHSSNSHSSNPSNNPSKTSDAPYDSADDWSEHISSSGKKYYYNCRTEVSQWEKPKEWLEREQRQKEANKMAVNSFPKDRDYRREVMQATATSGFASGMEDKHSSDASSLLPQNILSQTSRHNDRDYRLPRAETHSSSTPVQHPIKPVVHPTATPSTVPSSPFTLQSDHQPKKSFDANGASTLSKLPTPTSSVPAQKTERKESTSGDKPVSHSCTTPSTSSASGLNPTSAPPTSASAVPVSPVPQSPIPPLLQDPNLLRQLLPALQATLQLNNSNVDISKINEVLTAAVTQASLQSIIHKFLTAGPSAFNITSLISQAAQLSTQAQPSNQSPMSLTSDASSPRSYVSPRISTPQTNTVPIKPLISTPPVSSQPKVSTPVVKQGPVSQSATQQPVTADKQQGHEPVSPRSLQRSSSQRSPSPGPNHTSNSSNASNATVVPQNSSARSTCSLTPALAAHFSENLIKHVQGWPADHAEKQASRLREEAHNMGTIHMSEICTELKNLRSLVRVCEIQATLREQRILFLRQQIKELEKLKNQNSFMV

For this assay, the target named is T1, Flag-RBM12 (human) (UniProt Q9NTZ6).
T1 sequence: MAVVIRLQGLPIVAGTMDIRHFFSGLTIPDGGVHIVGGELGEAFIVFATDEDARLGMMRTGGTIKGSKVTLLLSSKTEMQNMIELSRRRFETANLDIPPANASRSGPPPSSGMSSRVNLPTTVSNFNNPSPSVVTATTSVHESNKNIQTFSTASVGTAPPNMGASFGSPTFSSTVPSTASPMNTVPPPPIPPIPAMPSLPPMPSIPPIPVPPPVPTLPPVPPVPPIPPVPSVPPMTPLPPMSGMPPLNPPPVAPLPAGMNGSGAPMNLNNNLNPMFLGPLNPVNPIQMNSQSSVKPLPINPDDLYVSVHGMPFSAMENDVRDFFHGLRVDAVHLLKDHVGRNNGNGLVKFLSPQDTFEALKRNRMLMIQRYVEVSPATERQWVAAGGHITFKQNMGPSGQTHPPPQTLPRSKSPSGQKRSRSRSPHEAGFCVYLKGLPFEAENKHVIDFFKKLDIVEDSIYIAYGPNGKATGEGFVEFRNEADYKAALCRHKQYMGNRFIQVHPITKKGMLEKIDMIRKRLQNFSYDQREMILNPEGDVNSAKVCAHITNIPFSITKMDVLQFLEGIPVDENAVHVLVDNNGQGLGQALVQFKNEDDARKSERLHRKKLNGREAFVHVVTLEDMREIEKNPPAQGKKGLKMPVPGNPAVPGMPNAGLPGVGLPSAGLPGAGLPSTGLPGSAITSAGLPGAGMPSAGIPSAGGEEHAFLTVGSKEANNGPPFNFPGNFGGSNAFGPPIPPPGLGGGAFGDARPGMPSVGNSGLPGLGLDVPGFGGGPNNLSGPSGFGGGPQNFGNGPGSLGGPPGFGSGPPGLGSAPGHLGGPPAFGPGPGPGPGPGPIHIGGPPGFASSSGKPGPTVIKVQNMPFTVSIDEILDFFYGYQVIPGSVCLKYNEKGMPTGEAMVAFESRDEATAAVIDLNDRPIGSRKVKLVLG
The experiment in a line: co-IP; HEK293T cells transfected with HA-WAC or HA-WACΔCC and Flag-RBM12; IP with anti-Flag M2 agarose beads, western blot with anti-HA. On the technique in general: In western blotting, separated proteins are transferred to a membrane and probed.

These are yes or no findings as the source states them, for the method shown. Binding seen in cells or lysates may run through a third protein. Where a sequence is shown, tags or fusion partners need not be part of it.

On to HA-tagged WACΔCC (from UniProt Q9BTA9), for which the binding result is given as “no binding”.
